Measured values from PubChem BioAssay AID1487 (National Center for Advancing Translational Sciences (NCATS), 2009).
Values joined by “and” are separate entries in the source; they are usually repeats but may differ in a detail not shown here. Equal entries are not always repeated. Some of the results follow. Shown are side measurements of this screen, not its main read-out; they come without a call. Compounds called inactive in the main read-out are mostly missing here. Potencies come from curve fits of mixed quality, noted in brackets.

Assay: qHTS Assay for Modulators of Lamin A Splicing
Settings: HeLa LMNA splicing GFP/RFP minigene ratio, 48 h
Method in brief: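 Read-out is the ratio of GFP to DsRed2 object intensity, acquired by 488 nm laser-scanning cytometry on HeLa lamin A-EGFP minigene reporter cells. Compound incubation 48 hrs at 37 °C in Opti-MEM with 2% FBS; DMSO 0.5% final.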

[1] = measured here: GFP splicing reporter channel
[2] = measured here: RFP viability control channel

SMILES	AC50 [1]	AC50 [2]
Oc1ccccc1/C=C/c1noc(-c2ccccc2O)n1	7.94 µM [falling, partial curve]	3.98 µM [falling, full curve]
CC(C)c1ccc(/C=N\NC(=O)c2ccc(Cn3cccn3)o2)cc1		15.8 µM [rising, single point]
CC(=O)N1CCC2(CC1)OC(=O)C(C)=C2C(=O)Nc1ccccc1C(F)(F)F	0.0398 µM [falling, full curve]	0.126 µM [falling, partial curve]
CCOC(=O)C1CCN(C(=O)Cn2ncc3c([nH]c4ccc(C)cc43)c2=O)CC1	11.2 µM [rising, partial curve]	
Cc1cc(C)n(-c2ccc(C(=O)Nc3nnc(C4CC4)s3)cc2)n1		0.112 µM [rising, full curve, poor fit]
CC(S)C(=O)NCC(=O)O (centres undefined)	0.891 µM [falling, single point]	35.5 µM [falling, single point]
CC(=O)N1CCc2ccc(S(=O)(=O)Nc3ccccc3Cl)cc21	5.01 µM [falling, partial curve]	11.2 µM [falling, partial curve, poor fit]
Cc1cc(C)c2c(CN3CCN(C/C=C/c4ccccc4)CC3)cc(=O)oc2c1		14.1 µM [rising, partial curve, poor fit]
O=C(NCc1ccc(N2CCCC2=O)cc1)Nc1cccc(Cl)c1	12.6 µM [rising, partial curve, poor fit]	15.8 µM [rising, partial curve]
CN(C)CCN1C(=O)c2ccccc2N(C)c2ccccc21	35.5 µM [falling, single point]	35.5 µM [falling, single point]
CCCN1CCN(c2ncnc3scc(C4COc5ccccc5O4)c23)CC1 (centres undefined)		0.1 µM [rising, full curve, poor fit]
CCOC(=O)C1CCC(CN(Cc2c(Cl)cccc2Cl)S(=O)(=O)c2ccc(F)cc2)CC1 (centres undefined)	0.794 µM [falling, full curve]	
CN(C)S(=O)(=O)c1ccc(N2CCCC2)c(C(=O)Nc2nc(-c3cc(F)ccc3F)cs2)c1	0.126 µM [rising, full curve, poor fit]	0.251 µM [rising, full curve]
Cc1ccc(NC(=O)CSc2nc3c(c(=O)[nH]2)CCC3)cc1C	6.31 µM [rising, partial curve, poor fit]	22.4 µM [rising, single point]
CCCN(CCC)c1nc(N)nc(-c2cc(Cl)ccc2OC)n1		17.8 µM [rising, single point]
COC(=O)C(Cc1ccccc1)NC(=S)NC(=O)c1ccccc1 (centres undefined)		5.62 µM [rising, partial curve, poor fit]
COc1ccc(Cn2c(O)c(C=Nc3ccc(O)cc3)c3ccccc3c2=O)cc1	7.08 µM [rising, partial curve, poor fit]	12.6 µM [rising, partial curve]
O=C(COc1cccnc1[N+](=O)[O-])N1CCN(S(=O)(=O)c2ccc3ccccc3c2)CC1		35.5 µM [rising, single point]
Cc1ccc(NC(=S)NCc2ccccc2Cl)c(C)c1	31.6 µM [rising, single point]	35.5 µM [rising, single point]
Cc1ccc(S(=O)(=O)CCC(=O)N2CCN(c3nc4c(C)c(Cl)ccc4s3)CC2)cc1	6.31 µM [falling, full curve, poor fit]	
COc1ccc(OC)c(NC(=O)COC(=O)c2c3c(nc4ccccc24)CCCC3)c1	17.8 µM [falling, single point]	
COc1ccc(NC(=O)c2cccc(S(=O)(=O)N(C)c3ccccc3)c2)cn1	17.8 µM [rising, single point]	20 µM [rising, partial curve]
COC(=O)Nc1nc2ccc(C(=O)c3cccs3)cc2[nH]1	50.1 nM [falling, full curve] and 282 nM [falling, full curve]	79.4 nM [falling, full curve] and 282 nM [falling, full curve]
CCC(CC)NC(=O)CC(c1ccccc1)c1ccccc1	15.8 µM [falling, single point]	1.12 µM [falling, partial curve, poor fit]
c1ccc2c(-c3nc(-c4ccncc4)no3)cccc2c1		0.282 µM [rising, full curve, poor fit]
CS(=O)(=O)N(CC(=O)N1CCN(c2ccccc2F)CC1)c1cccc(C(F)(F)F)c1		11.2 µM [rising, partial curve]
O=C(NCCc1ccc(Cl)cc1)c1ccc(CS(=O)(=O)Cc2ccccc2F)o1	7.94 µM [falling, partial curve, poor fit]	

SMILES	AC50 [1]	AC50 [2]
CSc1ccc(CNC(=O)c2cc3c(=O)n(Cc4ccco4)ccc3nc2C)cc1		11.2 µM [rising, partial curve]
O=S(=O)(O)c1nc2ccccc2n1Cc1ccc(Cl)cc1Cl		20 µM [rising, single point]
Cc1sc(N/N=C/c2cccs2)nc1-c1ccccc1		10 µM [rising, partial curve]
COc1ccc(Cn2ccc3nc(C)c(C(=O)Nc4ccc(C)c(F)c4)cc3c2=O)cc1	4.47 µM [rising, full curve, poor fit]	3.98 µM [rising, single point]
CC(C)(O/N=C(\C(=O)N[C@@H]1C(=O)N2C(C(=O)[O-])=C(C[n+]3ccccc3)CS[C@@H]12)c1csc(N)n1)C(=O)O	0.000316 µM [falling, full curve, poor fit]	0.00501 µM [rising, full curve, poor fit]
CC(C)N(C(=O)CSc1nc2ccccc2n1Cc1ccccc1F)C(C)C	35.5 µM [rising, single point]	35.5 µM [rising, single point]
O=C(Nc1ccc(C(F)(F)F)cc1)c1cc(S(=O)(=O)NCC2COc3ccccc3O2)ccc1F (centres undefined)	35.5 µM [falling, single point]	
COc1ccc(N2CCN(C(=O)c3nc(-c4ccc(Cl)cc4)n4c3CCCCC4)CC2)cc1	39.8 µM [rising, partial curve, poor fit]	35.5 µM [rising, single point]
CN1CCN(CCCN2c3ccccc3Sc3ccc(C(F)(F)F)cc32)CC1		14.1 µM [falling, partial curve] [middle of 4 runs]
COc1ccc(CCNC(=O)C2CC(c3ccc([N+](=O)[O-])cc3)=NO2)cc1 (centres undefined)		35.5 µM [rising, single point]
CC(C)c1cccc(C(C)C)c1NC(=O)c1ccccc1		6.31 µM [rising, single point]
O=C(O)c1sc2cc(C(F)(F)F)cnc2c1-c1ccccn1	1.26 µM [rising, full curve, poor fit]	
CCOC(=O)c1ccc(NS(=O)(=O)c2ccc3c(c2)CCCN3C(C)=O)cc1	11.2 µM [rising, partial curve]	12.6 µM [rising, single point]
CCCOC(=O)c1cccc(Nc2nc(-c3cccnc3)nc3ccccc23)c1		20 µM [rising, partial curve, poor fit]
Cc1cccc(-n2c(C)cc(/C=N/NC(=O)c3ccc(CN4CCOCC4)cc3)c2C)c1		17.8 µM [rising, partial curve]
O=S(=O)(NCc1cn2ccsc2n1)c1ccc2c(c1)OCCO2		2 µM [rising, full curve, poor fit]
Cc1ccc(-n2c(SCC(=O)Nc3cccc(Cl)c3)nc3n[nH]c(C)c3c2=N)cc1	12.6 µM [falling, single point]	15.8 µM [falling, single point]
CCn1c(C)c(C(C)=O)c(NCc2ccccc2)nc1=S	14.1 µM [rising, partial curve, poor fit]	22.4 µM [rising, single point]
CC(=O)N(CN1C(=O)c2ccccc2C1=O)c1cccc(C)c1	1.26 µM [rising, full curve, poor fit]	
O=C1c2ccccc2NC(c2ccccc2)N1Cc1ccco1 (centres undefined)	0.794 µM [rising, full curve, poor fit]	11.2 µM [rising, single point]
O=C(COc1ccc(Cl)cc1)N1CCN(c2cccc(C(F)(F)F)c2)CC1		11.2 µM [rising, partial curve, poor fit]
COc1cccc(C2C(C(N)=O)=C(C)Nc3nc(-c4ccccc4Cl)nn32)c1 (centres undefined)		15.8 µM [rising, single point]
COc1ccc(C2C(=O)N(C3CCCCC3)CC(=O)N2Cc2ccc3c(c2)OCO3)cc1 (centres undefined)		11.2 µM [rising, single point]
NC(=O)C1(N2CCCCC2)CCN(C(=S)Nc2ccc(F)cc2)CC1		14.1 µM [rising, single point]
CCOc1ccc(CCNC(=O)COC(=O)c2cc(OC)c(OC)c(OC)c2)cc1OCC	0.0355 µM [falling, full curve, poor fit]	
COc1cccc(C(=O)NCC(=O)N2CCC(C)CC2)c1		1.41 µM [falling, partial curve]

Some of these compounds in order of count of non-hydrogen atoms, falling:
SMILES	AC50 [1]	AC50 [2]
CC(C)N(C(=O)CSc1nc2ccccc2n1Cc1ccccc1F)C(C)C	35.5 µM [rising, single point]	35.5 µM [rising, single point]
COc1cccc(C(=O)NCC(=O)N2CCC(C)CC2)c1		1.41 µM [falling, partial curve]
Cc1sc(N/N=C/c2cccs2)nc1-c1ccccc1		10 µM [rising, partial curve]
